Some of the results follow. Shown are side measurements of this screen, not its main read-out; they come without a call. Compounds called inactive in the main read-out are mostly missing here. Words in brackets tell the shape of the fitted curve; partial curves, single points and poor fits give uncertain potencies.
Assay: qHTS Assay for Lipid Storage Modulators in Drosophila S3 Cells;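 as to cell number change: cells counted by Cell Tracker Red CMTPX staining in the red channel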
Conditions: BODIPY lipid droplet fluorescence, 18-24 h; for cell number change: measured here: cell count max response, cells fed with added oleic acid
In short: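 Laser-scanning cytometry quantifies lipid droplet accumulation (500–530 nm total intensity; droplet/cell object ratio) in oleic acid-fed (400 uM added) Drosophila S3 cells treated with a concentration series. 20 uM Triacsin C defined 100% inhibition.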

[1] = measured here: cell number channel AC50, cells fed with added oleic acid
[2] = measured here: lipid fluorescence (Fed channel) AC50, cells fed with added oleic acid

SMILES | cell number change [%] | AC50 [1] | AC50 [2]
O=C(CSc1nc(-c2cccs2)cc(C(F)(F)F)n1)Nc1cc(OCC(F)(F)C(F)F)cc([N+](=O)[O-])c1 | -31.9 | 29.1 µM [falling, single point] | 29.1 µM [falling, single point]
CCOC(=O)CSc1nc2ccccc2c(=O)n1CC | -3.86 |  | 
COc1ccc(CN2CCN(Cc3ccc(Br)cc3)CC2)c(OC)c1OC | 73 | 2.31 µM [falling, single point] | 
CCN(CC)S(=O)(=O)c1ccc(NC(=O)CO/N=C(\N)c2ccccc2)cc1 |  | 3.66 µM [rising, single point] | 
COCCCn1c(SCC(=O)Nc2nnc(C)s2)nnc1-c1ccoc1C | 17.4 |  | 1.3 µM [rising, single point]
CCOc1cc(/C=N/NC(=O)c2cc3c(ccc4ccccc43)o2)ccc1O | -42.2 | 7.31 µM [falling, partial curve, poor fit] | 
CCOC(=O)c1sc2nccc(N(C)C)c2c1N=CNOCc1ccccc1 | 22.2 |  | 7.31 µM [rising, partial curve]
Cc1ccc(C)c(-n2nnnc2SCC(=O)Nc2cccc(-c3nnc4n3CCCCC4)c2)c1 | 1.05 |  | 3.26 µM [rising, single point]
COc1cc([N+](=O)[O-])ccc1NC(=O)NNC(=O)c1sccc1C | -25.2 |  | 
NC(=O)c1c(NC(=O)CCCn2cnc([N+](=O)[O-])n2)sc2c1CCCC2 | -10.2 | 2.59 µM [rising, partial curve] | 
CC(C)CC(C(=O)NC(C)(C)C)N(Cc1ccccc1Cl)C(=O)c1snc(C(N)=O)c1N (configuration not stated) | -64.3 | 14.6 µM [falling, partial curve] | 
O=C(COC(=O)c1ccccc1C(=O)N1CCN(c2ccc(F)cc2)CC1)NCc1ccccc1 | 61.9 | 7.31 µM [rising, partial curve] | 6.51 µM [rising, single point]
COCCn1c(SCC(=O)Nc2cc(C)cc(C)c2)nc2ccccc2c1=O |  |  | 3.26 µM [falling, partial curve]
CC1(C(=O)NC2CCCCCCC2)CCC(=O)N1CCN1CCOCC1 (configuration not stated) | -25.9 | 0.651 µM [falling, full curve, poor fit] | 0.731 µM [falling, full curve]
COCc1c(C(N)=O)nnn1-c1nonc1N | -4.89 |  | 0.366 µM [falling, full curve, poor fit]
COc1cccc(CC(=O)OCC(=O)Nc2c(C)nn(-c3ccccc3)c2C)c1 | 5.62 |  | 
Cc1ccsc1/C=N/NC(=O)CN1CCN(Cc2ccccc2)CC1 | 11.6 |  | 0.231 µM [falling, full curve, poor fit]
CCOC(=O)C1CCCN(S(=O)(=O)c2ccc3c(c2)C(C)(C)C(=O)N3C)C1 (configuration not stated) | 16.5 |  | 29.1 µM [falling, single point]
COc1ccc(N(C(=O)Cn2nnc(-c3ccc(F)cc3)n2)C(C)C(=O)NC2CCCC2)cc1 (configuration not stated) |  |  | 1.12 µM [falling, partial curve]

SMILES | cell number change [%] | AC50 [1] | AC50 [2]
C/C(=N\NC(=O)c1cccnc1)c1ccc(OC2OCCOC2Oc2ccc(/C(C)=N/NC(=O)c3cccnc3)cc2)cc1 (configuration not stated) |  | 0.461 µM [rising, single point] | 6.51 µM [falling, partial curve, poor fit]
c1ccc(-c2ccc3c(c2)c2c4n3CCN=C4CCC2)cc1 | -2.65 | 6.51 µM [falling, single point] | 
NS(=O)(=O)c1ccc(CCNC(=O)c2ccc(NS(=O)(=O)c3ccc4[nH]c(=O)[nH]c4c3)cc2)cc1 | -13 |  | 4.11 µM [falling, full curve, poor fit]
CCC(Oc1ccccc1)C(=O)NC1CCCCCC1 (configuration not stated) | -1.66 |  | 2.91 µM [rising, partial curve]
Cn1nnnc1SC1CC(=O)N(c2ccccc2)C1=O (configuration not stated) | -30.2 | 29.1 µM [falling, single point] | 23.1 µM [falling, single point]
CC(=O)c1ccc(Nc2cnn(C34CC5CC(CC(CC(=O)O)(C5)C3)C4)c(=O)c2Cl)cc1 | 16.7 | 6.51 µM [falling, single point] | 6.51 µM [falling, single point]
Cn1c(-c2c(N)n(-c3ccccc3)c3nc4ccccc4nc23)nc2ccccc21 | -33.5 | 7.31 µM [falling, partial curve] | 20.6 µM [falling, single point]
Cc1cc(C(=O)NCc2ccccc2F)c2ccccc2n1 | 39.1 |  | 
Cc1ccc(-c2cc(-c3ccccc3)c3c(N)c(S(C)(=O)=O)sc3n2)cc1 | 145 | 9.2 µM [rising, partial curve] | 2.31 µM [rising, partial curve]
O=C(O)c1cccc(S(=O)(=O)N2CCC(Cc3ccccc3)CC2)c1 | 31.8 | 36.6 µM [rising, single point] | 29.1 µM [rising, single point]
CCn1c(SCC(=O)N2CCN(C)CC2)nc2c1c(=O)n(C)c(=O)n2C | 23.5 |  | 6.51 µM [falling, single point]
CC1CCN(S(=O)(=O)c2ccc([N+](=O)[O-])cc2)CC1 | 1.09 | 6.51 µM [rising, single point] | 
N/C(=N\OC(=O)CCN1C(=O)c2ccccc2C1=O)c1ccccn1 | 143 | 14.6 µM [rising, partial curve] | 
CC(=O)c1c(C)[nH]c(C(=O)CN2C(=O)NC(C)(c3ccc(C)cc3)C2=O)c1C (configuration not stated) | 22.8 | 1.16 µM [rising, full curve, poor fit] | 
CN(C)c1ccc(NC(=O)C2C3C=CC(C3)C2C(=O)O)cc1 (configuration not stated) | -30.6 | 29.1 µM [falling, single point] | 
O=C(N/N=C/c1ccccn1)c1ccc(NC(=O)c2cccc([N+](=O)[O-])c2)cc1 | -53.2 | 29.1 µM [falling, single point] | 
COc1ccc(C(=O)NC2CC3CCCC(C2)N3Cc2ccccc2)cc1 (configuration not stated) | -18.1 |  | 
CN1CCN(Cc2cn[nH]c2-c2ccc(F)cc2F)[C@@H](c2ccccc2)C1 | -4.01 |  | 0.517 µM [falling, full curve, poor fit]
Cc1ccccc1OC(=O)c1cccnc1 | 47.7 |  | 

SMILES | cell number change [%] | AC50 [1] | AC50 [2]
COc1ccccc1CNC(=O)CS(=O)Cc1nc(-c2ccccc2C)oc1C (configuration not stated) |  | 0.0291 µM [rising, full curve, poor fit] | 1.64 µM [rising, partial curve]
O=C1NN(c2ccccc2)C(=O)/C1=C/c1ccc(-c2ccc(Cl)c(C(=O)O)c2)o1 | -41.2 | 6.51 µM [falling, full curve] | 18.4 µM [falling, single point]
CC(C)(C)NC(=O)NC(=O)CN1CCN(c2ncc(C(F)(F)F)cc2Cl)CC1 |  | 0.461 µM [rising, full curve] | 0.731 µM [rising, partial curve, poor fit]
Cc1cc(=O)oc2cc(OC(=O)c3ccccc3)ccc12 | -0.841 |  | 0.731 µM [falling, single point]
CN(CC(=O)Nc1cccc(F)c1)C(=O)c1ccc(S(=O)(=O)N2CCCC2)cc1 | -45.1 | 18.4 µM [falling, single point] | 32.6 µM [falling, single point]
CCCCNC(=O)CCc1c(C)nc2nc(-c3cc(OC)cc(OC)c3)nn2c1C |  | 3.26 µM [rising, partial curve] | 3.26 µM [rising, partial curve]
Nc1nc(Nc2ccccc2)sc1C(=O)c1ccccc1 | 16.4 |  | 29.1 µM [rising, single point]
Cc1ccc(NC(=S)NC(NC(=O)N(C)C)C(Cl)(Cl)Cl)cc1 (configuration not stated) | -2.47 | 6.51 µM [rising, partial curve, poor fit] | 
c1ccc(CN2CCC(Nc3nc(-c4cccs4)nc4ccccc34)CC2)cc1 | -57.5 | 29.1 µM [falling, single point] | 25.9 µM [falling, single point]
CCOc1ccc(N=c2oc3cc(O)ccc3cc2C(=O)NCC2CCCO2)cc1 (configuration not stated) | 16.4 |  | 
C/C(=N\NC(=O)c1nn(C)c(C)c1Br)c1cccc(NC(=O)c2ccoc2C)c1 | 39.5 | 29.1 µM [rising, single point] | 1.84 µM [rising, full curve, poor fit]
CCOC(=O)CCc1c(C)c2ccc(OCC)c(C)c2oc1=O | -39 | 3.66 µM [falling, full curve] | 6.51 µM [falling, full curve]
O=C(NCc1ccccn1)c1ccc2c(=O)n3nc(Nc4ccccc4)sc3nc2c1 |  |  | 2.31 µM [falling, partial curve]
CCOC(=O)C1/C(=N\O)CC(C)(O)C(C(=O)OCC)C1c1ccc(OC)c(OC)c1 (configuration not stated) | 2.24 |  | 
O=C(Cn1c(=O)oc2ccccc21)N(Cc1ccccc1)C1CCS(=O)(=O)C1 (configuration not stated) | 4.33 | 0.651 µM [rising, full curve] | 
CC(C)c1ccc(NC(=O)CN2CCN(c3ccccn3)CC2)cc1 | -1.06 |  | 4.61 µM [rising, partial curve, poor fit]
O=C1CC(N2CCCCCC2)C(=O)N1c1ccc(F)cc1 (configuration not stated) | -28.9 |  | 
O=C(Nc1ccc(Cl)cc1)C1CCCN(c2cnccn2)C1 (configuration not stated) | 14.5 |  | 29.1 µM [rising, single point]

Compounds above that contain a CF3 group, in the order listed:
SMILES | cell number change [%] | AC50 [1] | AC50 [2]
O=C(CSc1nc(-c2cccs2)cc(C(F)(F)F)n1)Nc1cc(OCC(F)(F)C(F)F)cc([N+](=O)[O-])c1 | -31.9 | 29.1 µM [falling, single point] | 29.1 µM [falling, single point]
CC(C)(C)NC(=O)NC(=O)CN1CCN(c2ncc(C(F)(F)F)cc2Cl)CC1 |  | 0.461 µM [rising, full curve] | 0.731 µM [rising, partial curve, poor fit]
